At least one structure is not confirmed: it was looked up by name or label, or the drawing left a doubt.
Test system: rats
Experiment: Object recognition task (time spent on novel vs familiar object)
Type: in vivo, rat
Details: 1.7 mg/kg
Description: Effect of Compounds in Object Recognition Task
Spending more time on the novel than on the familiar object indicates memory for the latter. Vehicle-treated rats spent a mean of 63% of time on the novel object. The means for all of the doses of test articles were numerically higher with values of: 70 and 78% for galantamine, 71 and 75% for a first representative compound of formula IV, and 73 and 81% for a second representative compound of formula IV.
Ennaceur A and Delacour J (1988) A new one-trial test for neurobiological studies of memory in rats. 1: Behavioral data. Behav Brain Res 31: 47-59.

**Q.** Which “increase in % time on novel object versus vehicle-treated rats (p < 0.05)” value does the source give for COc1ccc2c3c1O[C@H]1C[C@@H](O)C=C[C@@]31CCN(C)C2 [Galantamine, galantamine] here?
**A.** significantly different from vehicle-treated rats
